# Measurements: the supplement of paper PMC8728848
# This is one part of the list.
# B1: PX14375D-bvu-513-34-513 (Bacteroides vulgatus) (protein)
# chain: TEDTFWKDETDFNLALTSCYTPLKNALNGGYYGTRGVMLRIARADEVDFRNDISDVYTVNRFTNSNTNSLTQGMFYQFYNALYRTNSIMQKLEEKKEQFSTDFQNSVKGECLFIRGFYLFQLAKEFKDAPLRLTASQSPSTFPLAKSSQADIWAQAKEDLKTAASLLPITNKIGKPTQGAAYAALGKIYVYEENWQEAINVLEPLTQNPYTYKLVEDFNWNFDDTHENNAESIFELLIEDVGGTDLWGDGENINSTQSNTRPKEYAAAEVGGWYEANPTQQIMDIFWKEKDKDGNFDYRARCSVAWDYEGCTYYQRPFREVFAQDKWKTYWILKYQNWKTQKDEPAPPKSFINERAIRYADVLLMLAEAYMNKGALDTSIGYINQIRRRANLNDYSGPITKEGVFEDLVHQRAIEFFVEGERFYDLRRWGLLEQTLKTCDDTRYKNYQTGKSDNINKFNYFPIPAKELDTNPLCTPSEGW
# Columns and labels:
# Assay in all cases: glycan array binding signal (z-score within array); higher = stronger binding
# Conditions in all cases: glycan notation: IUPAC condensed, linker removed
# [1] = biological target: Neu5Ac(a2-3)Gal(b1-4)GlcNAc(b1-6)GalNAc
# In short: (§1)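 From the Consortium for Functional Glycomics database, 3228 arrays were curated, keeping only those whose protein sequence was available. Binding is given as a within-array Z-score averaged across arrays sharing a protein sequence and across linkers. Negative Z-scores can be read as non-binding.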
# [2] = biological target: Neu5Ac(a2-3)Gal(b1-4)GlcNAc(b1-6)[Gal(b1-3)]GalNAc
# In short: as §1
# [3] = biological target: Neu5Ac(a2-3)Gal(b1-4)GlcNAc(b1-6)[Neu5Ac(a2-3)Gal(b1-3)]GalNAc
# In short: as §1
# [4] = biological target: Neu5Ac(a2-3)Gal(b1-4)GlcNAc6S
# In short: as §1
# [5] = biological target: Neu5Ac(a2-3)Gal(b1-4)[Fuc(a1-3)]GlcNAc
# In short: as §1
# [6] = biological target: Neu5Ac(a2-3)Gal(b1-4)[Fuc(a1-3)]GlcNAc(b1-2)Man
# In short: as §1
# [7] = biological target: Neu5Ac(a2-3)Gal(b1-4)[Fuc(a1-3)]GlcNAc(b1-3)Gal
# In short: as §1
# [8] = biological target: Neu5Ac(a2-3)Gal(b1-4)[Fuc(a1-3)]GlcNAc(b1-3)Gal(b1-4)GlcNAc
# In short: as §1
# [9] = biological target: Neu5Ac(a2-3)Gal(b1-4)[Fuc(a1-3)]GlcNAc(b1-3)Gal(b1-4)[Fuc(a1-3)]GlcNAc(b1-3)Gal(b1-4)[Fuc(a1-3)]GlcNAc
# In short: as §1
# [10] = biological target: Neu5Ac(a2-3)Gal(b1-4)[Fuc(a1-3)]GlcNAc(b1-3)GalNAc
# In short: as §1
# [11] = biological target: Neu5Ac(a2-3)Gal(b1-4)[Fuc(a1-3)]GlcNAc(b1-6)[Gal(b1-3)]GalNAc
# In short: as §1
# [12] = biological target: Neu5Ac(a2-3)Gal(b1-4)[Fuc(a1-3)]GlcNAc(b1-6)[Neu5Ac(a2-3)Gal(b1-3)]GalNAc
# In short: as §1
# [13] = biological target: Neu5Ac(a2-3)Gal(b1-4)[Fuc(a1-3)]GlcNAc6S
# In short: as §1
# [14] = biological target: Neu5Ac(a2-3)Gal6S(b1-4)GlcNAc
# In short: as §1
# [15] = biological target: Neu5Ac(a2-3)Gal6S(b1-4)[Fuc(a1-3)]GlcNAc
# In short: as §1
# Neu5Ac(a2-3)GalNAc = biological target: Neu5Ac(a2-3)GalNAc
# In short: as §1
# [16] = biological target: Neu5Ac(a2-3)GalNAc(b1-4)GlcNAc
# In short: as §1
# [17] = biological target: Neu5Ac(a2-3)[GalNAc(b1-4)]Gal(b1-4)Glc
# In short: as §1
# [18] = biological target: Neu5Ac(a2-3)[GalNAc(b1-4)]Gal(b1-4)GlcNAc
# In short: as §1
# [19] = biological target: Neu5Ac(a2-3)[GalNAc(b1-4)]Gal(b1-4)GlcNAc(b1-3)GalNAc
# In short: as §1
# [20] = biological target: Neu5Ac(a2-3)[Neu5Ac(a2-6)]GalNAc
# In short: as §1
# Neu5Ac(a2-6)Gal = biological target: Neu5Ac(a2-6)Gal
# In short: as §1
# [21] = biological target: Neu5Ac(a2-6)Gal(b1-3)GlcNAc(b1-3)[Gal(b1-4)GlcNAc(b1-6)]Gal(b1-4)Glc
# In short: as §1
# Neu5Ac(a2-6)Gal(b1-4)Glc = biological target: Neu5Ac(a2-6)Gal(b1-4)Glc
# In short: as §1
# [22] = biological target: Neu5Ac(a2-6)Gal(b1-4)GlcNAc
# In short: as §1
# [23] = biological target: Neu5Ac(a2-6)Gal(b1-4)GlcNAc(b1-2)Man
# In short: as §1
# [24] = biological target: Neu5Ac(a2-6)Gal(b1-4)GlcNAc(b1-2)Man(a1-3)Man(b1-4)GlcNAc(b1-4)GlcNAc
# In short: as §1
# [25] = biological target: Neu5Ac(a2-6)Gal(b1-4)GlcNAc(b1-2)Man(a1-3)[Gal(b1-4)GlcNAc(b1-2)Man(a1-6)]Man(b1-4)GlcNAc(b1-4)GlcNAc
# In short: as §1
# [26] = biological target: Neu5Ac(a2-6)Gal(b1-4)GlcNAc(b1-2)Man(a1-3)[GlcNAc(b1-2)Man(a1-6)]Man(b1-4)GlcNAc(b1-4)GlcNAc
# In short: as §1
# [27] = biological target: Neu5Ac(a2-6)Gal(b1-4)GlcNAc(b1-2)Man(a1-3)[GlcNAc(b1-4)][Neu5Ac(a2-6)Gal(b1-4)GlcNAc(b1-2)Man(a1-6)]Man(b1-4)GlcNAc(b1-4)GlcNAc
# In short: as §1
# [28] = biological target: Neu5Ac(a2-6)Gal(b1-4)GlcNAc(b1-2)Man(a1-3)[Man(a1-6)]Man(b1-4)GlcNAc(b1-4)GlcNAc
# In short: as §1
# [29] = biological target: Neu5Ac(a2-6)Gal(b1-4)GlcNAc(b1-2)Man(a1-3)[Neu5Ac(a2-3)Gal(b1-4)GlcNAc(b1-2)Man(a1-6)]Man(b1-4)GlcNAc(b1-4)GlcNAc
# In short: as §1
# [30] = biological target: Neu5Ac(a2-6)Gal(b1-4)GlcNAc(b1-2)Man(a1-3)[Neu5Ac(a2-6)Gal(b1-4)GlcNAc(b1-2)Man(a1-6)]Man(b1-4)GlcNAc(b1-4)GlcNAc
# In short: as §1
# [31] = biological target: Neu5Ac(a2-6)Gal(b1-4)GlcNAc(b1-2)Man(a1-3)[Neu5Ac(a2-6)Gal(b1-4)GlcNAc(b1-2)Man(a1-6)]Man(b1-4)GlcNAc(b1-4)[Fuc(a1-6)]GlcNAc
# In short: as §1
# [32] = biological target: Neu5Ac(a2-6)Gal(b1-4)GlcNAc(b1-2)Man(a1-6)Man(b1-4)GlcNAc(b1-4)GlcNAc
# In short: as §1
# [33] = biological target: Neu5Ac(a2-6)Gal(b1-4)GlcNAc(b1-2)Man(a1-6)[Gal(b1-4)GlcNAc(b1-2)Man(a1-3)]Man(b1-4)GlcNAc(b1-4)GlcNAc
# In short: as §1
# [34] = biological target: Neu5Ac(a2-6)Gal(b1-4)GlcNAc(b1-2)Man(a1-6)[GlcNAc(b1-2)Man(a1-3)]Man(b1-4)GlcNAc(b1-4)GlcNAc
# In short: as §1
# [35] = biological target: Neu5Ac(a2-6)Gal(b1-4)GlcNAc(b1-2)Man(a1-6)[Man(a1-3)]Man(b1-4)GlcNAc(b1-4)GlcNAc
# In short: as §1
# [36] = biological target: Neu5Ac(a2-6)Gal(b1-4)GlcNAc(b1-2)[Neu5Ac(a2-6)Gal(b1-4)GlcNAc(b1-4)]Man(a1-3)[GlcNAc(b1-4)][Neu5Ac(a2-6)Gal(b1-4)GlcNAc(b1-2)[Neu5Ac(a2-6)Gal(b1-4)GlcNAc(b1-6)]Man(a1-6)]Man(b1-4)GlcNAc(b1-4)GlcNAc
# In short: as §1
# [37] = biological target: Neu5Ac(a2-6)Gal(b1-4)GlcNAc(b1-2)[Neu5Ac(a2-6)Gal(b1-4)GlcNAc(b1-4)]Man(a1-3)[GlcNAc(b1-4)][Neu5Ac(a2-6)Gal(b1-4)GlcNAc(b1-4)Man(a1-6)]Man(b1-4)GlcNAc(b1-4)GlcNAc
# In short: as §1
# [38] = biological target: Neu5Ac(a2-6)Gal(b1-4)GlcNAc(b1-2)[Neu5Ac(a2-6)Gal(b1-4)GlcNAc(b1-6)]Man(a1-6)[Neu5Ac(a2-6)Gal(b1-4)GlcNAc(b1-2)Man(a1-3)][GlcNAc(b1-4)]Man(b1-4)GlcNAc(b1-4)GlcNAc
# In short: as §1
# [39] = biological target: Neu5Ac(a2-6)Gal(b1-4)GlcNAc(b1-3)Gal(b1-3)GlcNAc
# In short: as §1
# [40] = biological target: Neu5Ac(a2-6)Gal(b1-4)GlcNAc(b1-3)Gal(b1-4)GlcNAc
# In short: as §1
# [41] = biological target: Neu5Ac(a2-6)Gal(b1-4)GlcNAc(b1-3)Gal(b1-4)GlcNAc(b1-2)Man(a1-3)[Neu5Ac(a2-6)Gal(b1-4)GlcNAc(b1-3)Gal(b1-4)GlcNAc(b1-2)Man(a1-6)]GalNAc
# In short: as §1
# [42] = biological target: Neu5Ac(a2-6)Gal(b1-4)GlcNAc(b1-3)Gal(b1-4)GlcNAc(b1-3)Gal(b1-4)GlcNAc
# In short: as §1
binder,measurement,setting,value
B1,glycan array binding signal (z-score),[1],-0.439
same,glycan array binding signal (z-score),[2],0.59
same,glycan array binding signal (z-score),[3],-0.634
same,glycan array binding signal (z-score),[4],-0.399
same,glycan array binding signal (z-score),[5],-0.254
same,glycan array binding signal (z-score),[6],0.029
same,glycan array binding signal (z-score),[7],-0.627
same,glycan array binding signal (z-score),[8],1.04
same,glycan array binding signal (z-score),[9],-0.006
same,glycan array binding signal (z-score),[10],1.33
same,glycan array binding signal (z-score),[11],-0.359
same,glycan array binding signal (z-score),[12],0.243
same,glycan array binding signal (z-score),[13],0.349
same,glycan array binding signal (z-score),[14],0.881
same,glycan array binding signal (z-score),[15],-0.649
same,glycan array binding signal (z-score),Neu5Ac(a2-3)GalNAc,-0.732
same,glycan array binding signal (z-score),[16],-0.324
same,glycan array binding signal (z-score),[17],-0.02
same,glycan array binding signal (z-score),[18],0.138
same,glycan array binding signal (z-score),[19],-0.29
same,glycan array binding signal (z-score),[20],0.151
same,glycan array binding signal (z-score),Neu5Ac(a2-6)Gal,0.398
same,glycan array binding signal (z-score),[21],0.171
same,glycan array binding signal (z-score),Neu5Ac(a2-6)Gal(b1-4)Glc,-0.091
same,glycan array binding signal (z-score),[22],-0.712
same,glycan array binding signal (z-score),[23],-0.379
same,glycan array binding signal (z-score),[24],-0.394
same,glycan array binding signal (z-score),[25],0.663
same,glycan array binding signal (z-score),[26],-0.096
same,glycan array binding signal (z-score),[27],-0.86
same,glycan array binding signal (z-score),[28],-0.526
same,glycan array binding signal (z-score),[29],-0.464
same,glycan array binding signal (z-score),[30],-0.145
same,glycan array binding signal (z-score),[31],-0.487
same,glycan array binding signal (z-score),[32],0.342
same,glycan array binding signal (z-score),[33],-0.619
same,glycan array binding signal (z-score),[34],-0.574
same,glycan array binding signal (z-score),[35],0.663
same,glycan array binding signal (z-score),[36],0.509
same,glycan array binding signal (z-score),[37],-0.296
same,glycan array binding signal (z-score),[38],0.09
same,glycan array binding signal (z-score),[39],-0.298
same,glycan array binding signal (z-score),[40],-0.469
same,glycan array binding signal (z-score),[41],0.246
same,glycan array binding signal (z-score),[42],-0.146

# Pulled one by one from above, 3 records:
binder,measurement,setting,value
B1,glycan array binding signal (z-score),[38],0.09
same,glycan array binding signal (z-score),[3],-0.634
same,glycan array binding signal (z-score),[30],-0.145
